Data reported in patent US11312676B2, “Small molecule stimulators of steroid receptor coactivator proteins and their use in the treatment of cancer” (BAYLOR COLLEGE OF MEDICINE, priority 2014, dated 2022).
At least one structure is not confirmed: it was looked up by name or label, or the drawing left a doubt.

Protein sequences, listed by entry. Tags and fused reporters are not part of them.
UniProt Q9Y6Q9, whole entry: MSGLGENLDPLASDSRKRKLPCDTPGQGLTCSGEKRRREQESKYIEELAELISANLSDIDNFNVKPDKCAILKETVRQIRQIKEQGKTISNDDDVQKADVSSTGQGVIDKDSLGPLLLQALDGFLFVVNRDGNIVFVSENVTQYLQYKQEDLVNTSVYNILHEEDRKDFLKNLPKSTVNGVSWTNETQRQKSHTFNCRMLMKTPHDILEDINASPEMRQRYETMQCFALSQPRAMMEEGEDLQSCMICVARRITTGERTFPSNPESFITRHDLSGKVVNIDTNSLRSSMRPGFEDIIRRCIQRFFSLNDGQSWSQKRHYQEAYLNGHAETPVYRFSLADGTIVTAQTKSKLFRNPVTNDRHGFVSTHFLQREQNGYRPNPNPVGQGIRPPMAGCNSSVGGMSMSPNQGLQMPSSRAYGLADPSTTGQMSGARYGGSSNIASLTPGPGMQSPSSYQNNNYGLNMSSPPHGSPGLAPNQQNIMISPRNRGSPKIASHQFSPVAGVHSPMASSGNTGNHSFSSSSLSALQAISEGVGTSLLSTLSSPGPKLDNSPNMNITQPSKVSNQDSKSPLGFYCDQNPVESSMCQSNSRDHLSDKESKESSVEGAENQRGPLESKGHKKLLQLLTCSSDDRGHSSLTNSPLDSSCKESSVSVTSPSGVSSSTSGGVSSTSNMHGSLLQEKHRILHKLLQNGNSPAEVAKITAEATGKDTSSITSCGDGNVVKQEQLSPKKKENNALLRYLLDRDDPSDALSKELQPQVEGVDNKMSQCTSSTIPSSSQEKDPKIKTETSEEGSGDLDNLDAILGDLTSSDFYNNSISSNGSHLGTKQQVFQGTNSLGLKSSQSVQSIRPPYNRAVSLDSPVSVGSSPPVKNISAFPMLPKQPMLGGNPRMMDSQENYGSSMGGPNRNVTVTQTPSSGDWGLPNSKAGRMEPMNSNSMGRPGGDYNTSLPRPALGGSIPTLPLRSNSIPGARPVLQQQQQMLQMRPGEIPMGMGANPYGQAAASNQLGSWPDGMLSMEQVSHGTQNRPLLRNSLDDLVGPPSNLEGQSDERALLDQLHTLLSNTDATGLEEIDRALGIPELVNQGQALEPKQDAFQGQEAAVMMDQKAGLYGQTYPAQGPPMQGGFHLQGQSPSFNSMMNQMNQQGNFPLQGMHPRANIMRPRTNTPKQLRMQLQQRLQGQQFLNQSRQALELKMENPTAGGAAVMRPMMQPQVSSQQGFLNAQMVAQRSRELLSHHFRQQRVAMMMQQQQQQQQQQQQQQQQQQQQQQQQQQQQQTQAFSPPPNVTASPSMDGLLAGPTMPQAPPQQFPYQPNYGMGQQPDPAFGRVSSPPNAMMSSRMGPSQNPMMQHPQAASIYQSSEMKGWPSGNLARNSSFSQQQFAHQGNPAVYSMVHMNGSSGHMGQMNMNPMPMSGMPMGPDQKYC

Target: T1, SRC-3 (Homo sapiens, UniProt Q9Y6Q9)
T1 construct: expressed in transfected cells; host or cells: HeLa
Experiment: Gal4 luciferase reporter assay (pBIND-SRC-3 + pG5-LUC) in HeLa cells
Type: cell-based
Details: co-treatment with MCB-613, 24 hours
Procedure: The constructs expressing the Gal4 responsive luciferase reporter (pG5-luc), Gal4 DBD fusion with SRC-1, […] (pBIND-SRC-1/-2/-3), MMP2 or MMP13 promoter driven luciferase reporter (MMP2-luc, MMP13-luc) were prepared. Twenty-four hours before transfection, HeLa cells were plated in 24-well dishes. The indicated expression plasmids were transfected into cells using Lipofectamine 2000 according to the manufacturer's instructions.
After various compound treatments, cells were lysed in luciferase lysis buffer and assayed for luciferase activity using the ONE-Glo luciferase assay system (Promega, Madison, Wis.). All luciferase activities were normalized to protein concentration determined by Bradford assay (Bio-Rad, Hercules, Calif.).
HeLa cells were transfected with a Gal4 responsive luciferase reporter (pG5-luc) and a construct encoding SRC-1, SRC-2 or SRC-3 fused with the DNA binding domain of Gal4 (pBIND-SRC-1, pBIND-SRC-2 or pBIND-SRC-3) were treated with the indicated compounds.

`O=C(Nc1c[nH]nc1-c1nc2ccc(CN3CCOCC3)cc2[nH]1)NC1CC1` [AT9283] was tested, and the “effect on activation of SRC-3 by MCB-613” value was “significantly inhibited”.
